According to US12453784B2 (priority 2018, dated 2025):
At least one structure is not confirmed: it was looked up by name or label, or the drawing left a doubt.

Settings: 500 μl gadolinium infused via sub-cortical catheter, aCSF into deep white matter, 5 μL per minute, sheep motor cortex

For `[Gd]` [gadolinium], the “volume of distribution/volume of infusion ratio (Vd/Vi)” value was 4:1.
